# The inconclusive results got no clear call from the source; some entries with a clear call stand among them for comparison. For some assays here: Potencies of inconclusive entries are doubtful fits and often do not repeat. The source made the active and inactive calls. Unless noted, calls come from the whole dose curve; as a rule, active = well fitted curve in the direction sought with a large enough effect; inconclusive = small, poorly fitted or top-dose-only effect, or another doubt; inactive = no such curve, though single readings can be large; an effect the other way counts as inactive or inconclusive.
# Tests used:
# [1] = Quantitative High-Throughput drug screen in 47 multiple myeloma cell lines against the NCATS MIPE library collection: VP6_DJ cell viability assay (AID 1919867); note: nearly all actives have a fitted effect of over 40% in size; note: potency is the fitted concentration of half-maximal effect
# Summary of the method: (§1)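 500 cells/well per myeloma line exposed to pinned MIPE 4.0 compounds for 48 h at 37 °C, 5% CO2. Viability read as ATP by CellTiter-Glo luminescence, normalised to DMSO-only (100%) and media-only (0%) wells.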
# [2] = Quantitative High-Throughput drug screen in 47 multiple myeloma cell lines against the NCATS MIPE library collection: UTMC2_PLB cell viability assay (AID 1919868); conditions: CellTiter-Glo ATP luminescence, 48 h; viability (% of DMSO control): at 45.8 µM (top of the series); note: nearly all actives have a fitted effect of over 55% in size; note: potency is the fitted concentration of half-maximal effect
# Summary of the method: as §1
# [3] = Quantitative High-Throughput drug screen in 47 multiple myeloma cell lines against the NCATS MIPE library collection: PE2_PLB cell viability assay (AID 1919869); conditions: PE2_PLB myeloma cells viability, ATP luminescence, 48 h; viability (% of control): at 45.8 µM (top of the series); note: nearly all actives have a fitted effect of over 35% in size; note: potency is the fitted concentration of half-maximal effect
# Summary of the method: as §1
# [4] = Quantitative High-Throughput drug screen in 47 multiple myeloma cell lines against the NCATS MIPE library collection: RPMI8226_ATCC cell viability assay (AID 1919871); conditions: RPMI8226 myeloma viability, CellTiter-Glo ATP luminescence, 48 h; viability (% of control): at 45.8 µM (top of the series); note: nearly all actives have a fitted effect of over 30% in size; note: potency is the fitted concentration of half-maximal effect
# Summary of the method: as §1
# [5] = Quantitative High-Throughput drug screen in 47 multiple myeloma cell lines against the NCATS MIPE library collection: KMS28BM_JCRB cell viability assay (AID 1919874); conditions: CellTiter-Glo ATP, 48 h; viability, % of control: at 45.8 µM (top of the series); note: nearly all actives have a fitted effect of over 35% in size; note: potency is the fitted concentration of half-maximal effect
# Summary of the method: as §1
# [6] = qHTS for identification of novel therapeutic agents for treatment of microphthalmiaassociated transcription factor (MiT) renal cell carcinoma (RCC) (AID 1963991; calls by dose curve; note: potency is the fitted concentration of half-maximal effect); conditions: TFE3-RCC UOK109 viability, CellTiter-Glo, 48 h; active = Z-AUC below -0.8 in all three lines
# Summary of the method: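 Three TFE3-fusion RCC cell lines (UOK109, UOK124, UOK145), 500 cells/well, were exposed to the 1912-compound MIPE 4.0 library for 48 hours at 37 C. Viability was read by CellTiter-Glo luminescence, normalised to DMSO (100%) and empty wells (0%), with 11-concentration curve fits.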
# [7] = Quantitative High-Throughput drug screen in 47 multiple myeloma cell lines against the NCATS MIPE library collection: PCM6_Riken cell viability assay (AID 1919870); note: nearly all actives have a fitted effect of over 30% in size; note: potency is the fitted concentration of half-maximal effect
# Summary of the method: as §1
# [8] = Quantitative High-Throughput drug screen in 47 multiple myeloma cell lines against the NCATS MIPE library collection: KMS11_JCRBsus cell viability assay (AID 1919873); note: nearly all actives have a fitted effect of over 50% in size; note: potency is the fitted concentration of half-maximal effect
# Summary of the method: as §1
# [9] = qHTS profiling for inhibitors of Plasmodium falciparum proliferation (AID 504749);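 note: 0% = DMSO vehicle and full inhibition = artemisinin control; nearly all actives have a fitted effect of over 60% in size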; conditions: P. falciparum in erythrocytes, SYBR Green DNA, 72 h; Potency: parasite line B unless noted; series mostly up to 28.7 µM
# Summary of the method: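 P. falciparum-infected erythrocytes (0.3% parasitemia, 2.5% hematocrit) incubated with compound 72 h at 37 C, 5% CO2. Parasite DNA detected by SYBR Green after lysis, overnight at room temperature; normalised to 0.29 uM artemisinin and DMSO.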
# [10] = Quantitative High-Throughput drug screen in 47 multiple myeloma cell lines against the NCATS MIPE library collection: OPM2_DSMZ cell viability assay (AID 1919872); note: nearly all actives have a fitted effect of over 30% in size; note: potency is the fitted concentration of half-maximal effect
# Summary of the method: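 CellTiter-Glo ATP luminescence gave viability after 48 h compound treatment at 37C of 500 multiple myeloma cells per well. Normalisation used DMSO-only wells as 100% and media-only wells as 0% viability; primary qHTS of approved and investigational drugs.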
structure (smiles),measurement,setting,value
CCCOc1ccc(C(=O)OCCN(CC)CC)cc1N,Potency,[1],active: 9.35 µM
same,Potency,[2],inactive
same,Potency,[3],inactive
same,Potency,[4],inactive
same,Potency,[5],"inconclusive: 0.0023 µM [cytotoxic, partial curve, poor fit]"
same,Potency,[6],"inconclusive: 13.2 µM [falling, partial curve, poor fit]"
CN[C@H]1[C@@H](O[C@@H]2[C@H](O[C@@H]3[C@@H](O)[C@@H](O)[C@@H](N=C(N)N)[C@@H](O)[C@@H]3N=C(N)N)O[C@H](C)[C@@]2(O)C=O)O[C@@H](CO)[C@@H](O)[C@H]1O,Potency,[1],"inconclusive: 0.0106 µM [rising, full curve, poor fit]"
same,Potency,[2],inconclusive: 0.0009 µM [cytotoxic]
same,Potency,[7],inactive
CC(C)(C)c1cc(C(C)(C)C)c(NC(=O)c2c[nH]c3ccccc3c2=O)cc1O,Potency,[1],"inconclusive: 0.0012 µM [rising, full curve, poor fit]"
same,Potency,[2],inactive
same,Potency,[7],inactive
same,Potency,[4],inactive
C=C1CCC2[C@](C)(CO)C(O)CC[C@]2(C)C1CC=C1C(=O)OCC1O (stereo not given in full),Potency,[1],inactive
same,Potency,[2],"inconclusive: 8.55 µM [cytotoxic, partial curve, poor fit]"
same,Potency,[3],inactive
same,Potency,[8],inactive
Cc1cc(NS(=O)(=O)c2ccc(N)cc2)no1,Potency,[1],inactive
same,Potency,[2],"inconclusive: 18.7 µM [cytotoxic, partial curve, poor fit]"
same,Potency,[3],inactive
same,Potency,[4],inactive
same,Potency,[6],"inconclusive: 6.62 µM [falling, partial curve, poor fit]"
NS(=O)(=O)c1cc2c(cc1Cl)NC=NS2(=O)=O,Potency,[1],inactive
same,Potency,[2],"inconclusive: 0.0935 µM [rising, full curve, poor fit]"
same,Potency,[3],inactive
same,Potency,[8],"inconclusive: 37.2 µM [cytotoxic, single point]"
same,Potency,[5],inactive
same,Potency,[9],inactive
O=c1c(O)c(-c2ccc(O)cc2O)oc2cc(O)cc(O)c12,Potency,[1],"inconclusive: 1.05 µM [cytotoxic, full curve, poor fit]"
same,Potency,[2],"inconclusive: 0.0105 µM [rising, full curve, poor fit]"
same,Potency,[3],"inconclusive: 10.5 µM [cytotoxic, full curve, poor fit]"
same,Potency,[8],inactive
O=[N+]([O-])c1cn2c(n1)OC[C@@H](OCc1ccc(OC(F)(F)F)cc1)C2,Potency,[1],"inconclusive: 3.32 µM [cytotoxic, partial curve, poor fit]"
same,Potency,[2],"inconclusive: 14.8 µM [rising, partial curve, poor fit]"
same,Potency,[3],"inconclusive: 0.0013 µM [rising, full curve, poor fit]"
same,Potency,[6],"inconclusive: 18.7 µM [falling, partial curve, poor fit]"
C[C@H]1COC2=C1C(=O)C(=O)c1c2ccc2c1CCCC2(C)C,Potency,[1],active: 16.6 µM
same,Potency,[2],active: 9.35 µM
same,Potency,[7],"inconclusive: 18.7 µM [cytotoxic, partial curve]"
same,Potency,[4],"inconclusive: 18.7 µM [cytotoxic, partial curve, poor fit]"
same,Potency,[10],"inconclusive: 26.4 µM [cytotoxic, single point]"
same,Potency,[8],"inconclusive: 11.8 µM [cytotoxic, partial curve, poor fit]"
same,Potency,[5],inactive
CCC[C@H]1C[C@H](C(=O)N[C@@H]([C@@H]2O[C@@H](SC)[C@@H](O)[C@@H](O)[C@@H]2O)[C@H](C)Cl)N(C)C1,Potency,[1],inactive
same,Potency,[2],"inconclusive: 16.6 µM [rising, partial curve, poor fit]"
same,Potency,[3],inactive
same,Potency,[10],inactive
Cn1c(=O)c2c(ncn2CC(O)CO)n(C)c1=O (stereo not given),Potency,[1],"inconclusive: 0.0418 µM [rising, full curve, poor fit]"
same,viability (% of DMSO control),[2],inconclusive: 84.9% [cytotoxic]
same,Potency,[7],inactive
same,Potency,[4],inactive
C[C@@H](O)[C@H]1C(=O)N2C(C(=O)OCOC(=O)C(C)(C)C)=C(SC3CN(C4=NCCS4)C3)[C@H](C)[C@H]12,Potency,[1],inactive
same,Potency,[2],"inconclusive: 33.2 µM [rising, partial curve, poor fit]"
same,Potency,[3],"inconclusive: 26.4 µM [cytotoxic, single point]"
same,Potency,[5],"inconclusive: 5.9 µM [rising, partial curve, poor fit]"
COc1cc(CNC(=O)CCCCC=CC(C)C)ccc1O,Potency,[1],inactive
same,Potency,[2],"inconclusive: 0.0019 µM [rising, full curve, poor fit]"
same,Potency,[3],"inconclusive: 13.2 µM [cytotoxic, partial curve, poor fit]"
same,Potency,[4],"inconclusive: 0.0037 µM [rising, full curve, poor fit]"
same,Potency,[5],inactive
Cc1cn([C@H]2C[C@H](N=[N+]=[N-])[C@@H](CO)O2)c(=O)[nH]c1=O,Potency,[1],"inconclusive: 3.72 µM [cytotoxic, partial curve, poor fit]"
same,Potency,[2],"inconclusive: 37.2 µM [cytotoxic, single point]"
same,Potency,[3],active: 20.9 µM
same,Potency,[10],inactive
same,Potency,[6],"inconclusive: 18.7 µM [falling, partial curve]"
CC(C)Oc1ccc(C(=O)N[C@H](CNC(=O)CN(C)C)Cc2ccc(-c3cn4cccc([C@H](C)O)c4n3)cc2)cc1Cl,Potency,[1],active: 5.26 µM
same,Potency,[2],"inconclusive: 0.0935 µM [cytotoxic, full curve, poor fit]"
same,Potency,[3],"inconclusive: 0.332 µM [cytotoxic, full curve]"
same,Potency,[4],"inconclusive: 0.469 µM [cytotoxic, full curve]"
same,Potency,[8],active: 0.132 µM
same,Potency,[6],"inconclusive: 1.48 µM [falling, full curve]"
O=C1CN2Cc3c(ccc(Cl)c3Cl)N=C2N1,Potency,[1],"inconclusive: 23.5 µM [cytotoxic, single point]"
same,Potency,[2],inactive
same,Potency,[7],"inconclusive: 18.7 µM [cytotoxic, partial curve, poor fit]"
same,Potency,[4],active: 18.7 µM
same,Potency,[10],"inconclusive: 16.6 µM [cytotoxic, partial curve, poor fit]"
same,Potency,[8],"inconclusive: 37.2 µM [cytotoxic, single point]"
same,Potency,[5],"inconclusive: 20.9 µM [cytotoxic, single point]"
same,Potency,[6],"inconclusive: 16.6 µM [falling, partial curve]"
COc1cc2nc(N(C)CCCNC(=O)C3CCCO3)nc(N)c2cc1OC (stereo not given),Potency,[1],inactive
same,Potency,[2],"inconclusive: 0.0023 µM [rising, full curve, poor fit]"
same,Potency,[7],inactive
same,Potency,[4],"inconclusive: 0.0017 µM [rising, full curve]"
same,Potency,[10],"inconclusive: 0.0023 µM [rising, full curve, poor fit]"
same,Potency,[8],"inconclusive: 0.0033 µM [rising, full curve, poor fit]"
same,Potency,[5],"inconclusive: 0.0019 µM [rising, full curve]"
same,Potency,[6],inconclusive: 0.00105 µM
O=C(NCCCCN1CCOCC1)c1cc2ccccc2o1,Potency,[1],"inconclusive: 18.7 µM [cytotoxic, partial curve, poor fit]"
same,Potency,[2],"inconclusive: 0.0019 µM [cytotoxic, full curve, poor fit]"
same,Potency,[3],"inconclusive: 0.0017 µM [rising, full curve, poor fit]"
same,Potency,[10],inactive
same,Potency,[5],inactive
C[C@]12C=CC(=O)C=C1CC[C@@H]1[C@@H]2[C@@H](O)C[C@@]2(C)[C@@H]1CC[C@]2(O)C(=O)CO,Potency,[1],"inconclusive: 0.0033 µM [rising, full curve, poor fit]"
same,Potency,[2],"inconclusive: 0.209 µM [cytotoxic, full curve, poor fit]"
same,Potency,[7],inactive
CCCS(=O)(=O)Nc1ccc(F)c(C(=O)c2c[nH]c3ncc(Cl)cc23)c1F,Potency,[1],active: 14.8 µM
same,Potency,[2],"inconclusive: 1.66 µM [cytotoxic, partial curve, poor fit]"
same,Potency,[3],"inconclusive: 16.6 µM [cytotoxic, partial curve]"
same,Potency,[4],"inconclusive: 0.0662 µM [rising, full curve, poor fit]"
same,Potency,[5],"inconclusive: 20.9 µM [cytotoxic, partial curve, poor fit]"
same,Potency,[6],"inconclusive: 16.6 µM [falling, partial curve]"
OC[C@@H](O)[C@@H](O)[C@H](O)[C@@H](O)CO,Potency,[1],inactive
same,Potency,[2],inconclusive: 0.001 µM [cytotoxic]
same,Potency,[7],inactive
same,Potency,[4],inactive
CCCCC(F)(F)[C@@]1(O)CC[C@H]2[C@H](CC(=O)[C@@H]2CCCCCCC(=O)O)O1,Potency,[1],"inconclusive: 0.0148 µM [rising, full curve, poor fit]"
same,Potency,[2],"inconclusive: 0.0019 µM [cytotoxic, full curve, poor fit]"
same,Potency,[7],inactive
same,Potency,[4],"inconclusive: 0.0743 µM [cytotoxic, partial curve, poor fit]"
same,Potency,[10],inactive
same,Potency,[8],inactive
CCCCCCOC(=O)N=C(N)c1ccc(NCc2nc3cc(C(=O)N(CCC(=O)OCC)c4ccccn4)ccc3n2C)cc1,Potency,[1],"inconclusive: 26.4 µM [cytotoxic, single point]"
same,Potency,[2],"inconclusive: 33.2 µM [cytotoxic, partial curve, poor fit]"
same,Potency,[3],active: 13.2 µM
same,Potency,[10],"inconclusive: 26.4 µM [cytotoxic, single point]"
same,Potency,[5],active: 23.5 µM
same,Potency,[6],inconclusive: 0.935 µM
COCCOc1ccc2c(c1)ncn2-c1ccc2cccc(N3CCC(N)CC3)c2n1,Potency,[1],"inconclusive: 0.0526 µM [cytotoxic, full curve, poor fit]"
same,Potency,[2],"inconclusive: 14.8 µM [cytotoxic, partial curve, poor fit]"
same,Potency,[3],active: 0.372 µM
same,Potency,[6],"inconclusive: 23.5 µM [falling, partial curve]"
COc1cccc(Nc2c(C(N)=O)cnc3c(C)cc(S(=O)(=O)c4cccc(C(=O)N(C)C)c4)cc23)c1,Potency,[1],inactive
same,Potency,[2],"inconclusive: 12.9 µM [cytotoxic, single point]"
same,Potency,[7],inactive
same,Potency,[4],inactive

# Taken from above (3 entries):
structure (smiles),measurement,setting,value
CCCOc1ccc(C(=O)OCCN(CC)CC)cc1N,Potency,[2],inactive
same,Potency,[3],inactive
same,Potency,[4],inactive

# In a second layout: results already given.
structure (smiles) | measurement | setting | value
COc1cc(CNC(=O)CCCCC=CC(C)C)ccc1O | Potency | [1] | inactive
same | Potency | [2] | inconclusive: 0.0019 µM [rising, full curve, poor fit]
same | Potency | [3] | inconclusive: 13.2 µM [cytotoxic, partial curve, poor fit]
same | Potency | [4] | inconclusive: 0.0037 µM [rising, full curve, poor fit]
same | Potency | [5] | inactive
